For the series, the target named is eIF4B (UniProt P23588). Put plainly: fluorescence polarization. Particulars: 2 mM ATP, 2 mM Mg2+, 20 mM HEPES/KOH pH 7.5, 100 mM KCl, 1 mM TCEP, 2 mM MgCl2, 40 nM FAM-RNA, 60 min, 25 C, recombinant protein. A general note: Polarisation of emitted light reports the rotation of a fluorescent probe.

Sequences of proteins named here, by UniProt entry; tags and fusion partners are left off.
UniProt P23588, whole entry: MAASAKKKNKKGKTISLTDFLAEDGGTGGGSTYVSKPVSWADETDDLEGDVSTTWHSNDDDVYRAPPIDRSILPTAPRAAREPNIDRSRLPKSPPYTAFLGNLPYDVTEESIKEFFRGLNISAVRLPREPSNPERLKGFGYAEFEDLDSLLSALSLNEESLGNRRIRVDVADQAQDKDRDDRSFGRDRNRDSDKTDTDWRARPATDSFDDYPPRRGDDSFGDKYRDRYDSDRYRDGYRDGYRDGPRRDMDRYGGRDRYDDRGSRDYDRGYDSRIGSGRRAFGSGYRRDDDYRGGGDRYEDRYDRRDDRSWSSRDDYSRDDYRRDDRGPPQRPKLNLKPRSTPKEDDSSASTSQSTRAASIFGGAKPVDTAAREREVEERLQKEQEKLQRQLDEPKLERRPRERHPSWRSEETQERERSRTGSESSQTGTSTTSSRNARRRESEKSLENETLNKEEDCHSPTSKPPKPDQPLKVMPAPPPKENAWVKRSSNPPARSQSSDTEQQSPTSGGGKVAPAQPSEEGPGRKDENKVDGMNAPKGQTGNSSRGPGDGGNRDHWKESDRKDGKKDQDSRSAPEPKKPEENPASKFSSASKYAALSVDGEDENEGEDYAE

The text below walks through data of paper PMC11514447.

For at least one entry, the source does not settle the construct or the ends of the probe. No signal at the amounts used counts as a negative. A weaker result is weaker than the reference pair of the same experiment. At least one verdict rests on a figure or table, not on a statement of the authors.

As to “AGAGAGAGAGAGAGAGAGAGAGAGAGAGAG [30 nt AG]”, the binding result (positive control) was “binds”. As for “AUGGCUACCUCUCGAUAUGAGCCAGUGGCUGAAAUGGGUGUCGGUGCC [CDK4-CDS]”, the binding result is given as “binds more weakly”.

Regarding GGCUCUUUUCAGAGCCACCCA [His1-SL], the binding result was “binds more weakly”. As to “UCCUUUGGCCAACUGCUUAGAAGCCCAACACAACCCAAA [His1-ssRNA]”, the binding result (RNA pre-incubated with 200 nM UPF1 (TP308018), which blocked eIF4B binding) is on record as “no binding”.
